Some of these results come from one statement about several compounds together.
Experiment: Transdermal delivery of carbidopa or levodopa through full thickness pig skin ex vivo, Franz Cell delivery system
Assay type: in vitro ADME
Settings: within 22 hours; gel with arginine, octanol 4%, limonene 1.1-1.2%, lauroglycol 2%, water 5.2%, propylene glycol, antioxidants (FIG. 6)

Compound	Amount delivered ex vivo through pig skin
C[C@@](Cc1ccc(O)c(O)c1)(NN)C(=O)O [Carbidopa, carbidopa]	at least 6 mg/cm^2
N[C@@H](Cc1ccc(O)c(O)c1)C(=O)O [levodopa]	at least 6 mg/cm^2

— patent publication US9415108B2, “Compositions for transdermal delivery of active agents” (NeuroDerm, Ltd., priority 2010, dated 2016)
